Tested on: hypercholesterolemic patients
Details: group B, diet + atorvastatin 10 mg/day, end of 30 days; from 211±68 at baseline, p=0.035

CC(C)c1c(C(=O)Nc2ccccc2)c(-c2ccccc2)c(-c2ccc(F)cc2)n1CC[C@@H](O)C[C@@H](O)CC(=O)O [atorvastatin]
sgp91phox (serum, western blot densitometry): 154±43 A.U.

— US20120156704A1, “IN VITRO METHOD FOR DETECTING GP91PHOX AS A MARKER OF OXIDATIVE STRESS” (BIOS INTERNATIONAL S.R.L., priority 2009, published 2012)
